Results as given in patent US20050042220A1 (GENETICS INSTITUTE, published 2005).
Results are given in words; binding and its absence hold for the method and conditions named. Some binding calls cover weakened binding; strength is not graded here. Sequences can lack the tags named with a protein.

Tests used:
[1] = target: T1, human IL-22R extracellular domain-Fc fusion homodimer (human) (UniProt Q8N6P7); experiment: ELISA, receptor-Fc captured on anti-human IgG (FIG. 6A)
T1 sequence: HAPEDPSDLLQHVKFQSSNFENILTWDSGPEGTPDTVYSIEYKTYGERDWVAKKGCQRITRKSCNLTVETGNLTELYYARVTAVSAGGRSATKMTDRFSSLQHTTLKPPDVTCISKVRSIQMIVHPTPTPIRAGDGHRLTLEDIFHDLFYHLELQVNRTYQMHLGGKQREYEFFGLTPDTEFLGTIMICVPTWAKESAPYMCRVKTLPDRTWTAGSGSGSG

[2] = target: T2, IL-22R-Fc/IL-10R2-Fc heterodimer from co-expressing CHO cells (human) (UniProt Q8N6P7+Q08334); experiment: ELISA, receptor-Fc captured on anti-human IgG (FIGS. 8A-8B)
T2 sequence 1: T1 sequence
T2 sequence 2: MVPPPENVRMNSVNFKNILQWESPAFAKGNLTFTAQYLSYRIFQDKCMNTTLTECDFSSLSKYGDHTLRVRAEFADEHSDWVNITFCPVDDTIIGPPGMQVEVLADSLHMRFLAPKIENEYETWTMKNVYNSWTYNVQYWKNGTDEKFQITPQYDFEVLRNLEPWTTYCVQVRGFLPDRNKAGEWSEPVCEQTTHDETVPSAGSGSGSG

[3] = target: T1, human IL-22R extracellular domain-Fc fusion homodimer (human); experiment: ELISA, receptor-Fc captured on anti-human IgG, streptavidin-HRP (FIG. 6A)
[4] = target: T1, human IL-22R extracellular domain-Fc fusion homodimer (human); experiment: ELISA, 50 ng/ml total Fc captured on anti-human IgG, bio-IL-22 titrated (FIG. 8A)
[5] = target: T2, IL-22R-Fc/IL-10R2-Fc heterodimer from co-expressing CHO cells (human); experiment: ELISA, conditioned medium titrated onto anti-human IgG, bio-IL-22 30 ng/ml (FIG. 8B)
[6] = target: T1, human IL-22R extracellular domain-Fc fusion homodimer (human); experiment: ELISA: 50 ng/ml IL-22R-Fc captured on anti-human IgG wells; bio-IL-22 30 ng/ml; streptavidin-HRP, A450
[7] = target: T3, human IL-22 binding protein-Fc fusion (human, UniProt Q969J5-2 22-231, limits assumed); experiment: ELISA: 50 ng/ml IL-22BP-Fc captured on anti-human IgG wells; bio-IL-22 1 ng/ml; streptavidin-HRP, A450
T3 construct: Fc fusion homodimer, used as CHO conditioned medium; also called IL-22BP-Fc; huIL22BP-huFc; not shown: human IgG1 Fc
T3 sequence: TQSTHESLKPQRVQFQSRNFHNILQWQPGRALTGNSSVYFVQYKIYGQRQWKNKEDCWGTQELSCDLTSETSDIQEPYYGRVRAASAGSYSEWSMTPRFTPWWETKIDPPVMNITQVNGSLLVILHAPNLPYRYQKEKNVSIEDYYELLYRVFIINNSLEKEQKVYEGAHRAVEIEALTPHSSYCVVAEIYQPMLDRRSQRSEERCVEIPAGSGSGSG

[8] = target: T1, human IL-22R extracellular domain-Fc fusion homodimer (human); experiment: ELISA: 50 ng/ml total Fc of IL-22R-Fc CHO conditioned medium captured on anti-human IgG wells; bio-IL-22 titrated; streptavidin-HRP, A450
[9] = target: T2, IL-22R-Fc/IL-10R2-Fc heterodimer from co-expressing CHO cells (human); experiment: ELISA: 50 ng/ml total Fc of co-expressed IL-22R-Fc/IL-10R2-Fc captured on anti-human IgG wells; bio-IL-22 5 ng/ml; streptavidin-HRP, A450
[10] = target: T4, 1:1 mixture of IL-22R-Fc homodimer and IL-10R2-Fc homodimer, immobilized together (human) (UniProt Q8N6P7+Q08334); experiment: ELISA: 1:1 mixture of IL-22R-Fc medium and IL-10R2-Fc medium captured at varied total Fc on anti-human IgG wells; bio-IL-22 30 ng/ml; streptavidin-HRP, A450
T4 sequence 1: T1 sequence
T4 sequence 2: T2 sequence 2

[11] = target: T1, human IL-22R extracellular domain-Fc fusion homodimer (human); experiment: ELISA: 1:1 mixture of IL-22R-Fc medium and irrelevant Fc protein captured at varied total Fc on anti-human IgG wells; bio-IL-22 30 ng/ml; streptavidin-HRP, A450
[12] = target: T2, IL-22R-Fc/IL-10R2-Fc heterodimer from co-expressing CHO cells (human); experiment: ELISA: 50 ng/ml total Fc from medium of CHO cells co-expressing IL-22R-Fc and IL-10R2-Fc captured on anti-human IgG wells; bio-IL-22 titrated; streptavidin-HRP, A450
[13] = target: T2, IL-22R-Fc/IL-10R2-Fc heterodimer from co-expressing CHO cells (human); experiment: ELISA: 1:1 mixture of co-expressed IL-22R-Fc/IL-10R2-Fc medium and control Fc protein captured at varied total Fc on anti-human IgG wells; bio-IL-22 30 ng/ml; streptavidin-HRP, A450

Measured: binding

B1: biotinylated N terminal His/Flag tagged human IL-22 (ligand)
chain: GSGHHHHHHGSGDYKDDDDKAPISSHCRLDKSNFQQPYITNRTFMLAKEASLADNNTDVRLIGEKLFHGVSMSERCYLMKQVLNFTLEEVLFPQSDRFQPYMQEVVPFLARLSNRLSTCHIEGDDLHIQRNVQKLKDTVKKLGESGEIKAIGELDLLFMSLRNACI
modifications: biotinylated with EZ-Link Sulfo-NHS-Biotin (sites not given)
notes: also called bio-IL-22; biotinylated IL-22
binds: [1] | [2] | [3] | [4] | [5] | [6] | [7] | [8] | [9] | [10] | [11] | [12] | [13]
